Results: publication PMC7819943, “Rice protein-binding microarrays: a tool to detect cis-acting elements near promoter regions in rice”
The other results are listed elsewhere or left out.

The sequences below were run against T1, OsSMF1 (Oryza sativa, UniProt Q6ZLB0 1-436) (assay: protein-binding microarray (RPBM); PBS, 2% BSA, 51.3 ng/ul salmon testes DNA, 50 uM zinc acetate, 200 nM TF, 25 C, 1 h; high values mean tight binding). Details: protein: recombinant; tags: N-terminal polyhistidine and DsRed monomer fusion (pET32a); chain copies: 2; label: CyDye5-dUTP incorporated in the synthesized complementary strand; 3' TTTTT single-stranded linker to array surface; dsDNA, one strand shown.
T1 sequence: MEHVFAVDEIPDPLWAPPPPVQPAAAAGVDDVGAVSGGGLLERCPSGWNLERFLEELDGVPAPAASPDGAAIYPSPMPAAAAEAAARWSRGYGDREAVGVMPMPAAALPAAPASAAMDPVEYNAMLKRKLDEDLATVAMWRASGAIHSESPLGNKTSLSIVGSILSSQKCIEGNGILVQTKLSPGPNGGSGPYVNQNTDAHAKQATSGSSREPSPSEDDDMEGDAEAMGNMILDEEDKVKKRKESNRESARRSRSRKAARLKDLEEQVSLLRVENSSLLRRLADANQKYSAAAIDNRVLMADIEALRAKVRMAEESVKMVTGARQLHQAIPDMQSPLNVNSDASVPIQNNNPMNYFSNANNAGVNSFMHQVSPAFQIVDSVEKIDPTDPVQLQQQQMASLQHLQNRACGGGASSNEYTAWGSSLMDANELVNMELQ
Summary of the method: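 An Axon 4000B scanner gave the binding signal as per-feature fluorescence intensity in arbitrary units. This followed washing of a custom Agilent array that had been incubated for 1 h at 25 °C with 200 nM protein in PBS, 2% BSA, salmon testes DNA and 50 µM zinc acetate. The proteins were transcription factors fused at the N-terminus to polyhistidine and DsRed, expressed in E. coli BL21-CodonPlus and purified on Ni–NTA.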

| Sequence | binding signal |
| --- | --- |
| AAACAAAGATTGTATACACGTATATAAAGTATGTATACGCCGGAGTCACCTAGTGCAG | 3620 fluorescence intensity (a.u.) |
| AACGTGGAAGTGGATTGGGTGGTGGGTGGGGATCCACCTACGGAGTCACCTAGTGCAG | 4180 fluorescence intensity (a.u.) |
| AAATTCGAATGATAGGAGGTGAAATTTTCTGTCACATGATCGGAGTCACCTAGTGCAG | 17500 fluorescence intensity (a.u.) |
| CAGGTTATCACACTCGACTGACTCAGTTCCACCAAAGGACCGGAGTCACCTAGTGCAG | 5000 fluorescence intensity (a.u.) |
| TTGTGAGCTGTGACTGTATCTGCCTTGAGGTCCCAAGTAACGGAGTCACCTAGTGCAG | 6450 fluorescence intensity (a.u.) |
| AGGCTGACATCCTTGACCCACATAATCGTTGACCTGGCTACGGAGTCACCTAGTGCAG | 3260 fluorescence intensity (a.u.) |
| ACCTGGAGCCTCCACGTGGAGTGCAACTTCACCTACGTCGCGGAGTCACCTAGTGCAG | 13600 fluorescence intensity (a.u.) |
| CAATTAATCACATGTTATTAGTACCTCGTTTTGCGTGAAACGGAGTCACCTAGTGCAG | 5030 fluorescence intensity (a.u.) |
| CTGTTTCCACGTGACGGGGCGGATTATTTGGCTTGGTAGGCGGAGTCACCTAGTGCAG | 5170 fluorescence intensity (a.u.) |
| CCCTATGAACTTTACAATACCGTTTAAATTACATCATAAGCGGAGTCACCTAGTGCAG | 3170 fluorescence intensity (a.u.) |
| ACGCCATGTCAATGCCACGTGGGACGAATATCAGTCAAAGCGGAGTCACCTAGTGCAG | 10500 fluorescence intensity (a.u.) |
| TTCGCGGGTGATGTGTTTCTGTTTTGTCCTGAAATTACAGCGGAGTCACCTAGTGCAG | 4830 fluorescence intensity (a.u.) |
| AGCCATTACATCATCCAATTGCATATTTGCATTCTCATCTCGGAGTCACCTAGTGCAG | 4970 fluorescence intensity (a.u.) |
| GCTAGCACTCGCCTCCCTCTGCGCCCACGCCACGCTGTGGCGGAGTCACCTAGTGCAG | 4110 fluorescence intensity (a.u.) |
| AACCAATTCAAGTTAATATTGATTGGCTACACGCATATAGCGGAGTCACCTAGTGCAG | 3550 fluorescence intensity (a.u.) |
| GATGGTAAATCTTTAACATATGCCTTGGAAGATGATGTCACGGAGTCACCTAGTGCAG | 5090 fluorescence intensity (a.u.) |
| CATCCTCAAGAGTTCGCCGACAGCCACCGGTGTCATCTCGCGGAGTCACCTAGTGCAG | 3300 fluorescence intensity (a.u.) |
| CACGGACCCGAAACCACCACTCACACGACGACACGTCCCCCGGAGTCACCTAGTGCAG | 5820 fluorescence intensity (a.u.) |
| GCGGCGCTTGTCAAGCGCCGCCATTGCAGGACGAGCGAAGCGGAGTCACCTAGTGCAG | 5080 fluorescence intensity (a.u.) |
| ACGAGGATGCTGACGGCGGCGTTGCCTCCGCCGGCGCGACCGGAGTCACCTAGTGCAG | 3500 fluorescence intensity (a.u.) |
| GAGCATCCAAGGAACTTGCGTGGCCTGAGATCAACCAGACCGGAGTCACCTAGTGCAG | 4740 fluorescence intensity (a.u.) |

| Sequence | binding signal |
| --- | --- |
| CTAAATAGAACCACTTTACATTACTATGACATGGCCTGCTCGGAGTCACCTAGTGCAG | 5050 fluorescence intensity (a.u.) |
| CTCCCTCTCCAACACATCGGCAACCAACCACCCTCAACCTCGGAGTCACCTAGTGCAG | 3790 fluorescence intensity (a.u.) |
| ATTATTCCTGGTTTTGGCTGACGTGGCTCCTTTGACTAGACGGAGTCACCTAGTGCAG | 31400 fluorescence intensity (a.u.) |
| GTAACAGATTACATGAGGATTATGCGTCTGCATAGGTGGACGGAGTCACCTAGTGCAG | 3780 fluorescence intensity (a.u.) |
| GATCCACTTGCTTCTCTATGACACGGCAAGCCGAGCCATGCGGAGTCACCTAGTGCAG | 5560 fluorescence intensity (a.u.) |
| AAATTACTAGTGGATAATGATGTGTTATGCTTGTATGTTGCGGAGTCACCTAGTGCAG | 4550 fluorescence intensity (a.u.) |
| AGAGTTGGATCAACTCCACCTAGGTTTAAAATGGAAATTTCGGAGTCACCTAGTGCAG | 3780 fluorescence intensity (a.u.) |
| ATCGACCATGGCTACTCTACGTACGATTACCTTGATCACCCGGAGTCACCTAGTGCAG | 4250 fluorescence intensity (a.u.) |
| ATCTACTTTTAGATAAGCCATGACTAGGCTAGGTGATTGTCGGAGTCACCTAGTGCAG | 5560 fluorescence intensity (a.u.) |
| TGCAGGGGCGCAGCACGGGAGGGTGCTTGACGCATACAAGCGGAGTCACCTAGTGCAG | 4030 fluorescence intensity (a.u.) |
| CTGTTGCCTACTCCCTCCTCAATCCTGCAGAAGTTTCTGACGGAGTCACCTAGTGCAG | 3240 fluorescence intensity (a.u.) |
| AAAATATAGGGGAAAGGAAACTGCCACGTGCCCAAGAAGTCGGAGTCACCTAGTGCAG | 7840 fluorescence intensity (a.u.) |
| ACTCGCGGCTGCCCTTGCCAGCTCACTTCCTCCACCGGCGCGGAGTCACCTAGTGCAG | 4650 fluorescence intensity (a.u.) |
| AAAAGAATATATGATTATTTGTTATTAGTCATCTGTGCTTCGGAGTCACCTAGTGCAG | 3360 fluorescence intensity (a.u.) |
| ACACCGAATGCGTCATGCGTCACAGAGTATGAGGCAATACCGGAGTCACCTAGTGCAG | 3660 fluorescence intensity (a.u.) |
| GTTCCAAGGCTACCCTATGCTGCAAAAGAAAGGGGAAAACCGGAGTCACCTAGTGCAG | 3200 fluorescence intensity (a.u.) |
| CTAGAAGTTACCAAGGTACCAGAGCAGACACCTAAGCAGCCGGAGTCACCTAGTGCAG | 3370 fluorescence intensity (a.u.) |
| TGAATTTATTCTTTCCGCATGTGACAACTAGATCTGGCCTCGGAGTCACCTAGTGCAG | 3800 fluorescence intensity (a.u.) |
| CAGCAGGTGCAGGTGCAGGAGCAGGAAGAGTGGAGAGGTGCGGAGTCACCTAGTGCAG | 3320 fluorescence intensity (a.u.) |
| TTGCTGCAAATGACGTCGACATGTGCGTGGCATACCATGGCGGAGTCACCTAGTGCAG | 15000 fluorescence intensity (a.u.) |
| TGATTGTGTTGGTCCTTTTGGCCATTAGCACAGAGTTCGCCGGAGTCACCTAGTGCAG | 20600 fluorescence intensity (a.u.) |

Not a retest: entries from further up.

| Sequence | binding signal |
| --- | --- |
| GTAACAGATTACATGAGGATTATGCGTCTGCATAGGTGGACGGAGTCACCTAGTGCAG | 3780 fluorescence intensity (a.u.) |
| GATCCACTTGCTTCTCTATGACACGGCAAGCCGAGCCATGCGGAGTCACCTAGTGCAG | 5560 fluorescence intensity (a.u.) |
